Counter-ions that a name gives are not always drawn. This is one part of the list. Hit calls seldom repeat between salt and free forms of one compound.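 Kinases were expressed as nanoluciferase fusions in K562 cells and luminescence was read every 4 h between 2 and 18 h as percent of control, DMSO set to 100% and a positive control to 0%. A time point counts as decreased when the signal drops significantly (2 sigma). The hit call is the authors' own, does not follow from the count of time points alone, and its rule is not shown.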
What was measured:
Assay in all cases: number of time points (of 5) at which kinase-Nluc abundance scored as decreased, DMSO-normalised (count); higher = more persistent destabilization
Details in all cases: K562; 2-18 h
NTRK3 = NTRK3 (UniProt Q16288)
PAK4 = PAK4 (UniProt O96013)
PBK = PBK (UniProt Q96KB5)
PDGFRB = PDGFRB (UniProt P09619)
PDK1 = PDK1 (UniProt Q15118)
PDPK1 = PDPK1 (UniProt O15530)
PIK4CA = PIK4CA (UniProt P42356)
PIK4CB = PIK4CB (UniProt Q9UBF8)
PLK1 = PLK1 (UniProt P53350)
PRKAA1 = PRKAA1 (UniProt Q13131)
PRKCA = PRKCA (UniProt P17252)
PTK2 = PTK2 (UniProt Q05397)
PTK2B = PTK2B (UniProt Q14289)
RAF1 = RAF1 (UniProt P04049)
[1] = target: RAF1_S257L (clone: RAF1_mut) (UniProt P04049)
RET = RET (UniProt P07949)
[2] = target: RET_M918T (clone: RET_mut) (UniProt P07949)
RIOK1 = RIOK1 (UniProt Q9BRS2)
RIPK1 = RIPK1 (UniProt Q13546)
RIPK2 = RIPK2 (UniProt O43353)

Protein sequences, listed by entry. Tags and fused reporters are not part of them. Lines headed by an entry give the natural chain unless they say otherwise; changes in a name come on top.
UniProt O96013: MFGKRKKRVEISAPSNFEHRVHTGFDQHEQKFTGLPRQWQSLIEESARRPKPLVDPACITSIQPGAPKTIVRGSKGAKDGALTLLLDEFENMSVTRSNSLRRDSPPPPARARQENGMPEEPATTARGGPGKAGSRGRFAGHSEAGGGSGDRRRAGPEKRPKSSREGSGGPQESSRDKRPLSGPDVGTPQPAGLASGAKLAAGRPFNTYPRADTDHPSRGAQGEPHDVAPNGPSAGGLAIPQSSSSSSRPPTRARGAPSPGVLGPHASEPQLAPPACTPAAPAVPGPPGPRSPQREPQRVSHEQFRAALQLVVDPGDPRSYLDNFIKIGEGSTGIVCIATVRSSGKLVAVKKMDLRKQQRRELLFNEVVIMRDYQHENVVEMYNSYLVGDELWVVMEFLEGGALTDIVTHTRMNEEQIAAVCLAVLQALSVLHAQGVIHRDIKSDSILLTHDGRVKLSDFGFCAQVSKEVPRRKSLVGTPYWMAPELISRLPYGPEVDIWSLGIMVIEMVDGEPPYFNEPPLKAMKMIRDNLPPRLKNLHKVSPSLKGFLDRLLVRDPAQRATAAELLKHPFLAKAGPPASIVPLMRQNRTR
UniProt Q96KB5: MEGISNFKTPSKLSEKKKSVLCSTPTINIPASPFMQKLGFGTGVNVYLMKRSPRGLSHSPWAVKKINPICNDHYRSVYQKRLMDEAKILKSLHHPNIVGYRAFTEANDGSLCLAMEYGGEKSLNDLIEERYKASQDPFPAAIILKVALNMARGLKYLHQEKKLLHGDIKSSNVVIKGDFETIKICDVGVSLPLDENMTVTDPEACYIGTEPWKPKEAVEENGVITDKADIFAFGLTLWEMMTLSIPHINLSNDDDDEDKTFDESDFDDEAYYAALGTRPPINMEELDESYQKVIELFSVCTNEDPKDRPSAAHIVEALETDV
UniProt P09619, whole entry: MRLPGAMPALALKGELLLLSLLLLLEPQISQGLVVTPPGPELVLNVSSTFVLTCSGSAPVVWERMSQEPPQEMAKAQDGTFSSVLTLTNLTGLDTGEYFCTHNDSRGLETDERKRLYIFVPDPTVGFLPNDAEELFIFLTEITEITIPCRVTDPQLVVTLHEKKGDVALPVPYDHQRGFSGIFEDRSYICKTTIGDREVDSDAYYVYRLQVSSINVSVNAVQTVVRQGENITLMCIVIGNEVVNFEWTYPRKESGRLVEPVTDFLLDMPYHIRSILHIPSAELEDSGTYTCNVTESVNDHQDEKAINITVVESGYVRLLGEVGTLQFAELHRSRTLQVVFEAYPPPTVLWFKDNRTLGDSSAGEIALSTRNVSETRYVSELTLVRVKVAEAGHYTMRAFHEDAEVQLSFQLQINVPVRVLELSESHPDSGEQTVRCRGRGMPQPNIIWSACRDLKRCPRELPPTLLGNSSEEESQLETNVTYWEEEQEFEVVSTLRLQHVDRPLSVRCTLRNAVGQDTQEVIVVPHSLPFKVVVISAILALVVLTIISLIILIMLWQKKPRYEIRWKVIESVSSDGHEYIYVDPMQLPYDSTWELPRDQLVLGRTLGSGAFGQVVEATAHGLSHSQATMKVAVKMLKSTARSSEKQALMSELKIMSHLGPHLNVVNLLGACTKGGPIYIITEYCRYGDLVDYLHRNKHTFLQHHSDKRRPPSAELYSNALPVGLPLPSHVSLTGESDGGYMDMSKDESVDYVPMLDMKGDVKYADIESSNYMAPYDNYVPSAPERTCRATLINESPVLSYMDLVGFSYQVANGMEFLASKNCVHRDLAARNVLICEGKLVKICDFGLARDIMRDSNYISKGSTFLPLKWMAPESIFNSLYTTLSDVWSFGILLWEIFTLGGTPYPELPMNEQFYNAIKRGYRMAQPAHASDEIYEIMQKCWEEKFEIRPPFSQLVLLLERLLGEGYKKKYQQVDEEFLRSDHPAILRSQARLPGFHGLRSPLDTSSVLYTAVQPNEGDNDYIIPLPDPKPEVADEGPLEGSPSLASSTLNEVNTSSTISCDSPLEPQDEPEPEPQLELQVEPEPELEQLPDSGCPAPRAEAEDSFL
UniProt Q15118, whole entry, looked up: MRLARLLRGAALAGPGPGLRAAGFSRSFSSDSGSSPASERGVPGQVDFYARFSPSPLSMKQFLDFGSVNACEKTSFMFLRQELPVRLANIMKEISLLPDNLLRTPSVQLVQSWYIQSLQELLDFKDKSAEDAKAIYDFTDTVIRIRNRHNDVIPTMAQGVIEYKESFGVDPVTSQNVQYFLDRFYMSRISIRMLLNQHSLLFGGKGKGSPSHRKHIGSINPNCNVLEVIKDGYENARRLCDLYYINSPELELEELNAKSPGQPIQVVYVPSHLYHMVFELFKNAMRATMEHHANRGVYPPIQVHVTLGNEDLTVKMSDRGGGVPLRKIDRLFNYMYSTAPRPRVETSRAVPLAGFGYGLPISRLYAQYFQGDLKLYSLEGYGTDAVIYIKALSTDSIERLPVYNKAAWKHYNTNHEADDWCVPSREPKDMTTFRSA
UniProt O15530: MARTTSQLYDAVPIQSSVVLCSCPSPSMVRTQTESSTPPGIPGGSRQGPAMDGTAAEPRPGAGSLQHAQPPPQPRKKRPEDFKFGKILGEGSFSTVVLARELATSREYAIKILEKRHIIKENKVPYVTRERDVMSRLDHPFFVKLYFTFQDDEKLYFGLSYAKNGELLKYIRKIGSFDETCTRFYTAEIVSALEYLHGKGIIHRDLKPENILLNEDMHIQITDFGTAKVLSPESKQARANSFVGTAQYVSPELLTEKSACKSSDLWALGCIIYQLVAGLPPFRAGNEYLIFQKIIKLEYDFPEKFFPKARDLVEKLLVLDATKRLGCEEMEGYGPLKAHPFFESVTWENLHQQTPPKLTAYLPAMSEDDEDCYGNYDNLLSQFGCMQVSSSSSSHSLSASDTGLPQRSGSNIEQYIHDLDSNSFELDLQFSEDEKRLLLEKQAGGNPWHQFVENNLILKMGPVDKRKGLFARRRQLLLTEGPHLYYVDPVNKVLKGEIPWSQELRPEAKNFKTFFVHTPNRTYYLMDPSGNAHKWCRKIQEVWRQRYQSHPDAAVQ
UniProt Q9UBF8: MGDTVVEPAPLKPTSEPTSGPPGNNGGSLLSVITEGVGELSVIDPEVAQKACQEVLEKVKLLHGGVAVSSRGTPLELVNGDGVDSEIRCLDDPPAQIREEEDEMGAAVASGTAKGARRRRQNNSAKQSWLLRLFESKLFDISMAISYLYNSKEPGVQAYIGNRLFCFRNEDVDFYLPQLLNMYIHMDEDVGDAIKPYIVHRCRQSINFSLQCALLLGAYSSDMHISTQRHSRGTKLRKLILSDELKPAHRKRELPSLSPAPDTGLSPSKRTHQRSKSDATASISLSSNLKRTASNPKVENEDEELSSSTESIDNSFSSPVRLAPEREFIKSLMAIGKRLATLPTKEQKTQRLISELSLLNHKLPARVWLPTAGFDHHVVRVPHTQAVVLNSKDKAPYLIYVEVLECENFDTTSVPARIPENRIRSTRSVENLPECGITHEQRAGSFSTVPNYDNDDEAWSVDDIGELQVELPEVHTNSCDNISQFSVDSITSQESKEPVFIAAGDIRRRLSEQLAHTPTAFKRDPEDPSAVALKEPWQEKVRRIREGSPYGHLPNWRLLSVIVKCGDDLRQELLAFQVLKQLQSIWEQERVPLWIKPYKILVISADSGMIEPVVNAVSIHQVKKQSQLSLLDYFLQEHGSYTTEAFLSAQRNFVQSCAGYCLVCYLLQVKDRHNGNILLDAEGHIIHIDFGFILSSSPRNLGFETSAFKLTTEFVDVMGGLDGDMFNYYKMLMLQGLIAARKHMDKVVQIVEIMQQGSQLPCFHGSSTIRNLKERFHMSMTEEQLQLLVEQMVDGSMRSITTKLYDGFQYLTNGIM
UniProt Q05397, whole entry, looked up: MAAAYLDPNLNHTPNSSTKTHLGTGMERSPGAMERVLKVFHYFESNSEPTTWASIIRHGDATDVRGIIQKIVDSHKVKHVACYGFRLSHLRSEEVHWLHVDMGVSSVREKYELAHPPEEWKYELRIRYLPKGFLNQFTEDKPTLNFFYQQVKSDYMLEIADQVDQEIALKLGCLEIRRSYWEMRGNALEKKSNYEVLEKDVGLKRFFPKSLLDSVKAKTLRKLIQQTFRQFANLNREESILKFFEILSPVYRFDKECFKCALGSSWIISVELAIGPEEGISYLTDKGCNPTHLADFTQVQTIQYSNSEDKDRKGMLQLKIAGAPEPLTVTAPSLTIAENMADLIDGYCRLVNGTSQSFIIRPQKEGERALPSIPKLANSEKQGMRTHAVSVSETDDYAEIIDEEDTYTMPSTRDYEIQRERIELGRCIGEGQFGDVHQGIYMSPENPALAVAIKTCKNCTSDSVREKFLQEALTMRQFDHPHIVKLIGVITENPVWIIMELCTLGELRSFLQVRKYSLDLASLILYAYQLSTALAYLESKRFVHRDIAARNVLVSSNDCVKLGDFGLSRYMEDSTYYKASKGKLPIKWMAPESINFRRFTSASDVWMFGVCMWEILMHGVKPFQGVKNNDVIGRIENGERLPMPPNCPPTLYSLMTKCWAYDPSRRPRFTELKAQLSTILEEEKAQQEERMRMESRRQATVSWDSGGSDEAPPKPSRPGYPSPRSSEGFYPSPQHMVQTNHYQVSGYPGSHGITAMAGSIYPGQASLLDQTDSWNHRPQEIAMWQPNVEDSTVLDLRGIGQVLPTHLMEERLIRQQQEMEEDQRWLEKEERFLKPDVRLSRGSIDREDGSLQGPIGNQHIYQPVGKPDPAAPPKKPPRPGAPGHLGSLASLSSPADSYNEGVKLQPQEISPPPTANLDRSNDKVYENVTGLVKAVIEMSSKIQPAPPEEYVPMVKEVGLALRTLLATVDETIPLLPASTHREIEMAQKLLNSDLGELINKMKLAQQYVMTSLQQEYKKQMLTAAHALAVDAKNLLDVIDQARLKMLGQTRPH
UniProt Q14289, whole entry, looked up: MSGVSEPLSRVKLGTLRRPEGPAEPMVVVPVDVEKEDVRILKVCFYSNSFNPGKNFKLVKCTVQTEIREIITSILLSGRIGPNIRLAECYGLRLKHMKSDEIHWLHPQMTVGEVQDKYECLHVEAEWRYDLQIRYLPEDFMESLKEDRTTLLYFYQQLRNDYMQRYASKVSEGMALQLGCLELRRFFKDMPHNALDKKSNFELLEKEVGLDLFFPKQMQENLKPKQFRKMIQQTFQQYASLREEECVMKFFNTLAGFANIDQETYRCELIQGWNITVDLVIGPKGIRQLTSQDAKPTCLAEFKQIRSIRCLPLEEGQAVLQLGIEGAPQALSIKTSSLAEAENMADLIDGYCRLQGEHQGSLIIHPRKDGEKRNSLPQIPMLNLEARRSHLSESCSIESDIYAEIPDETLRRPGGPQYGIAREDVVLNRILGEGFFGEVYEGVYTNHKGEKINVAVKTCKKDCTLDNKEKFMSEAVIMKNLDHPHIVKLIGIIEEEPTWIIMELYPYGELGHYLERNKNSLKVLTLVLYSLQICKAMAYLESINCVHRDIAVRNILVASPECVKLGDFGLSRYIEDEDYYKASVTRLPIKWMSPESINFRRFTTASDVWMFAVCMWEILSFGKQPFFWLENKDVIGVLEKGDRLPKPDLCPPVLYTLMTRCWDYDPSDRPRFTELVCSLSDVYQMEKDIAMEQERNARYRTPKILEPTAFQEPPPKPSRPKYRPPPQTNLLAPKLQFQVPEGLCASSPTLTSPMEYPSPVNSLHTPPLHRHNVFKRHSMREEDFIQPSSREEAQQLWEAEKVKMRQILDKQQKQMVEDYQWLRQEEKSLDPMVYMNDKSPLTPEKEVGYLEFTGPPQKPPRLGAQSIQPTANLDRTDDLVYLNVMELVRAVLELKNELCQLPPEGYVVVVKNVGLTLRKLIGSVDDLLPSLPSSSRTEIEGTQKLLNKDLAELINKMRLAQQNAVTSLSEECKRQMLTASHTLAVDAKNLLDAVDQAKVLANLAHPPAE

Row | Compound | number of time points (NTRK3) | number of time points (PAK4) | number of time points (PBK) | number of time points (PDGFRB) | number of time points (PDK1) | number of time points (PDPK1) | number of time points (PIK4CA) | number of time points (PIK4CB) | number of time points (PLK1) | number of time points (PRKAA1) | number of time points (PRKCA) | number of time points (PTK2) | number of time points (PTK2B) | number of time points (RAF1) | number of time points [1] | number of time points (RET) | number of time points [2] | number of time points (RIOK1) | number of time points (RIPK1) | number of time points (RIPK2)
1 | COc1ccc2c(c1)C[C@H](C(=O)Nc1ccc(-c3cn[nH]c3)cc1OCCN(C)C)CO2 [Chroman 1] (10 µM) | 0 | 0 | 0 | 0 | 0 | 0 | 0 | 0 | 0 | 0 | 0 | 0 | 0 | 0 | 0 | 0 | 0 | 0 | 0 | 0
2 | C=CC(=O)N[C@H]1CCOC[C@H]1Nc1ncc2cc(-c3c(Cl)c(OC)cc(OC)c3Cl)ccc2n1 [Fisogatinib] (10 µM) | 0 | 0 | 0 | 0 | 0 | 0 | 0 | 0 | 0 | 0 | 0 | 0 | 0 | 0 | 0 | 0 | 0 | 0 | 0 | 0
3 | CCCCNc1ncc2c(-c3ccc(CN4CCN(C)CC4)cc3)cn([C@H]3CC[C@H](O)CC3)c2n1 [UNC2025 (hydrochloride)] (2.5 µM) | 2 | 0 | 0 | 1 | 0 | 0 | 0 | 1 | 0 | 0 | 0 | 1 | 0 | 0 | 0 | 0 | 0 | 1 | 1 | 0
4 | CC(C)(C)c1ccc(C(=O)Nc2cn3cc(-n4ccnc4)ccc3n2)cc1 (10 µM) | 0 | 0 | 0 | 0 | 0 | 0 | 0 | 0 | 0 | 0 | 0 | 0 | 0 | 0 | 0 | 0 | 0 | 0 | 0 | 0
5 | COC(=O)/C=C/c1ccc(O)c(OC)c1 [Ferulic acid methyl ester] (10 µM) | 0 | 0 | 0 | 0 | 0 | 0 | 0 | 0 | 0 | 0 | 0 | 0 | 0 | 0 | 0 | 0 | 0 | 0 | 0 | 0
6 | C[C@@H](Nc1cc(F)cc(F)c1)c1cc(C(=O)N(C)C)cc2c(=O)cc(N3CCOCC3)oc12 (10 µM) | 0 | 0 | 0 | 0 | 0 | 0 | 0 | 0 | 0 | 0 | 0 | 0 | 0 | 0 | 5 | 0 | 0 | 0 | 0 | 0
7 | O=C(NCc1cccc(O)c1)c1cc2cc(F)ccc2[nH]1 (10 µM) | 0 | 0 | 0 | 0 | 0 | 0 | 0 | 0 | 0 | 0 | 0 | 0 | 0 | 0 | 0 | 0 | 0 | 0 | 0 | 0
8 | O=S(=O)(N=Cc1c(O)ccc2ccccc12)c1cccs1 (10 µM) | 0 | 0 | 0 | 0 | 0 | 0 | 0 | 0 | 0 | 0 | 0 | 0 | 0 | 0 | 0 | 0 | 0 | 0 | 0 | 0
9 | CC(C)(O)c1cc(Nc2cc(Oc3cn(C4CC4)nc3C3CCOCC3)ccn2)ccn1 (10 µM) | 0 | 0 | 0 | 0 | 0 | 0 | 0 | 0 | 0 | 0 | 0 | 0 | 0 | 0 | 0 | 0 | 0 | 0 | 0 | 0
10 | Cc1ccc(Nc2c(C(N)=O)cnc3cc(-c4ccncc4)ccc23)cc1C [cFMS Receptor Inhibitor II] (10 µM) | 0 | 0 | 0 | 0 | 0 | 0 | 0 | 0 | 0 | 0 | 0 | 0 | 0 | 0 | 0 | 0 | 0 | 0 | 0 | 0
11 | O=C(Nc1ncc(SCCN2CCCC2)s1)[C@]1(c2ccc(S(=O)(=O)C3CC3)cc2)C[C@H]1C1CCCCC1 [Globalagliatin] (2.5 µM) | 0 | 0 | 0 | 0 | 0 | 0 | 0 | 0 | 0 | 0 | 0 | 0 | 0 | 0 | 0 | 0 | 0 | 0 | 0 | 0

Record cards, from the list above. Values in the order: number of time points (NTRK3) | number of time points (PAK4) | number of time points (PBK) | number of time points (PDGFRB) | number of time points (PDK1) | number of time points (PDPK1) | number of time points (PIK4CA) | number of time points (PIK4CB) | number of time points (PLK1) | number of time points (PRKAA1) | number of time points (PRKCA) | number of time points (PTK2) | number of time points (PTK2B) | number of time points (RAF1) | number of time points [1] | number of time points (RET) | number of time points [2] | number of time points (RIOK1) | number of time points (RIPK1) | number of time points (RIPK2)
CC(C)(C)c1ccc(C(=O)Nc2cn3cc(-n4ccnc4)ccc3n2)cc1 (10 µM) is entered as 0 | 0 | 0 | 0 | 0 | 0 | 0 | 0 | 0 | 0 | 0 | 0 | 0 | 0 | 0 | 0 | 0 | 0 | 0 | 0
C=CC(=O)N[C@H]1CCOC[C@H]1Nc1ncc2cc(-c3c(Cl)c(OC)cc(OC)c3Cl)ccc2n1 [Fisogatinib] (10 µM) is entered as 0 | 0 | 0 | 0 | 0 | 0 | 0 | 0 | 0 | 0 | 0 | 0 | 0 | 0 | 0 | 0 | 0 | 0 | 0 | 0

From the supplement of paper PMC12823440, “Inhibitors supercharge kinase turnover through native proteolytic circuits” (Nature, 2025)
